Values joined by “and” are separate entries in the source; they are usually repeats but may differ in a detail not shown here. Identical values can stand only once. The inconclusive results got no clear call from the source; some entries with a clear call stand among them for comparison. Potencies beside an inconclusive call are fits to weak or partial responses and may not hold up. Active and inactive are the calls of the source. Calls follow the shape of the dose curve; as a rule, active = well fitted curve in the direction sought with a large enough effect; inconclusive = small, poorly fitted or top-dose-only effect, or another doubt; inactive = no such curve, though single readings can be large; an effect the other way counts as inactive or inconclusive.
Legend:
[1] = Quantitative High-Throughput drug screen in 47 multiple myeloma cell lines against the NCATS MIPE library collection: Delta47_JCRB cell viability assay (AID 1918925; also: nearly all actives have a fitted effect of over 45% in size); conditions: Delta47 myeloma viability, CellTiter-Glo ATP, 48 h; series mostly up to 45.8 µM
In short: (§1)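 qHTS of the MIPE 4.0 collection: 500 myeloma cells/well, 48 h drug exposure at 37C in 5% CO2, then CellTiter-Glo for 5 min at room temperature before luminescence reading.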

The chains behind the UniProt entries cited, without tags or fusion partners.
UniProt P36969, whole entry, looked up: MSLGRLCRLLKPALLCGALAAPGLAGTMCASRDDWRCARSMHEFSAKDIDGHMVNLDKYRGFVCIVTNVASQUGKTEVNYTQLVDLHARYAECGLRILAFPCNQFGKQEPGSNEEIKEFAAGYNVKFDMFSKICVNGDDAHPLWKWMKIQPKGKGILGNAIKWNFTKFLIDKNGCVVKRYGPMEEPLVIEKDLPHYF
UniProt P07947, whole entry, looked up: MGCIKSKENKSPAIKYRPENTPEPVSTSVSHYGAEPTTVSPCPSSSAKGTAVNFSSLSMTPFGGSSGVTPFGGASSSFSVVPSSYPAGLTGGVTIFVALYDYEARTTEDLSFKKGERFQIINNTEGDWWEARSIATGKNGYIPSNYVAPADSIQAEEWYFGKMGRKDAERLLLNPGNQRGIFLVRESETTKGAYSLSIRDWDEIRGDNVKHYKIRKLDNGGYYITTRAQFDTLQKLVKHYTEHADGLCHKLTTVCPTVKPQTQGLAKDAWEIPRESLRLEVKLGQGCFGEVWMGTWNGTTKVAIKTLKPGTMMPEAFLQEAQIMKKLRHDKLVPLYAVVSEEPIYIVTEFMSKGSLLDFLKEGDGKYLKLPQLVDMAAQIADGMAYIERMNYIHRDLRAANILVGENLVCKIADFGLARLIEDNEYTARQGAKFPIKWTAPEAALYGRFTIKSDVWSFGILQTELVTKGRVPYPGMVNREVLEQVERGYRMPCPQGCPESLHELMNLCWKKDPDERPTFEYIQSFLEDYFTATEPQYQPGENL

[2] = Quantitative High-Throughput drug screen in 47 multiple myeloma cell lines against the NCATS MIPE library collection: Karpas25_ECACC cell viability assay (AID 1918968; also: nearly all actives have a fitted effect of over 35% in size); conditions: Karpas25 myeloma viability, CellTiter-Glo ATP, 48 h; series mostly up to 45.8 µM
In short: as §1

[3] = Quantitative High-Throughput drug screen in 47 multiple myeloma cell lines against the NCATS MIPE library collection: MM1S_ATCC cell viability assay (AID 1918980); conditions: MM1S myeloma viability, CellTiter-Glo ATP luminescence, 48 h; series mostly up to 45.8 µM; also: nearly all actives have a fitted effect of over 45% in size
In short: (§2)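 500 cells/well; MIPE 4.0 drugs pin-transferred; 48 h, 37C, 5% CO2. CellTiter-Glo, 5 min RT, luminescence. Controls: DMSO 100%, media 0%.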

Es-2 = assay: Primary qHTS to identify gynecologic anti-cancer compounds using libraries of approved drugs and bioactive compounds (AID 1345084); conditions: Gynecologic cancer cell panel viability, ATPlite luminescence, 48 h; series mostly up to 57.5 µM; also: nearly all actives have a fitted effect of over 55% in size
In short: (§3)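 ATP-based viability (ATPlite), 1,000 cells/well, 16 h pre-incubation, 48 h compound at 37 C, 5% CO2, 15 min RT before read.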

JEG-3 = assay: as above; conditions: Gynecologic cancer cell panel viability, ATPlite luminescence, 48 h; series mostly up to 57.5 µM
In short: as §3

Tov112D = assay: as above; conditions: Gynecologic cancer cell panel viability, ATPlite luminescence, 48 h; series mostly up to 57.5 µM
In short: as §3

[4] = qHTS of pediatric cancer cell lines to identify multiple opportunities for drug repurposing: Confirmatory screen for LAN-5 cells (AID 1347113); conditions: LAN-5 neuroblastoma cell viability; series mostly up to 45.9 µM; also: nearly all actives have a fitted effect of over 65% in size
In short: (§4)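 Viability after 48 h compound treatment at 37C, 500-1,000 cells/well, read as ATP luminescence with CellTiter-Glo. Primary screens used 11-point (MIPE, 0.78 nM-46 µM) or 8-point (NPC, 0.59 nM-46 µM) final concentrations; follow-up screens used 11-point dilutions.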

[5] = qHTS of pediatric cancer cell lines to identify multiple opportunities for drug repurposing: Confirmatory screen for DAOY cells (AID 1347114); conditions: DAOY medulloblastoma cells viability, cytotoxicity qHTS; series mostly up to 45.9 µM; also: nearly all actives have a fitted effect of over 65% in size
In short: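 Viability measured as metabolically active cells via CellTiter-Glo luminescence following 48 hours of compound exposure, 11-point dilutions in confirmatory testing. 500-1,000 cells/well plated 5 hours before dosing; controls were DMSO and 2.3 µM bortezomib.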

[6] = qHTS of pediatric cancer cell lines to identify multiple opportunities for drug repurposing: Confirmatory screen for NB-EBc1 cells (AID 1347115); conditions: NB-EBc1 neuroblastoma cells, viability (cytotoxicity); series mostly up to 45.9 µM; also: nearly all actives have a fitted effect of over 45% in size
In short: as §4

[7] = qHTS of pediatric cancer cell lines to identify multiple opportunities for drug repurposing: Confirmatory screen for control Hh wild type fibroblast cells (AID 1347121); conditions: viability qHTS; series mostly up to 45.9 µM; also: nearly all actives have a fitted effect of over 70% in size
In short: as §4

[8] = qHTS of pediatric cancer cell lines to identify multiple opportunities for drug repurposing: Confirmatory screen for U-2 OS cells (AID 1347122); conditions: U-2 OS osteosarcoma cell viability; series mostly up to 45.9 µM; also: nearly all actives have a fitted effect of over 65% in size
In short: as §4

C33A = assay: Primary qHTS to identify gynecologic anti-cancer compounds using libraries of approved drugs and bioactive compounds (AID 1345084); conditions: Gynecologic cancer cell panel viability, ATPlite luminescence, 48 h; series mostly up to 57.5 µM; also: nearly all actives have a fitted effect of over 55% in size
In short: as §3

[9] = biological target: Phospholipid hydroperoxide glutathione peroxidase GPX4 (Homo sapiens) (UniProt P36969); assay: Primary qHTS Assay for Inhibitors of Recombinant Selenoprotein Glutathione Peroxidase 4 (GPX4) (AID 1845192); conditions: recombinant GPX4, GR-coupled NADPH fluorescence, 15 min; series mostly up to 50 µM; also: nearly all actives have a fitted effect of over 65% in size
In short: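 Steps: GPX4 plus compound, 30 min RT; add GR/GSH/NADPH master mix; start with cumene hydroperoxide; read 340/450 nm fluorescence at 0 and 15 min. Finals were 200 nM GPX4, 1 mM GSH, 0.5 mM CHP, 0.5 mM NADPH, 100 nM GR.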

[10] = biological target: Tyrosine-protein kinase Yes (Homo sapiens) (UniProt P07947); assay: qHTS for small molecule inhibitors of Yes1 kinase: Primary Screen (AID 686947); conditions: Yes1 kinase biochemical qHTS inhibition; series mostly up to 76.9 µM; also: nearly all actives have a fitted effect of over 60% in size
In short: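 In this qHTS format, inhibition is expressed relative to DMSO controls with enzyme (maximum) and without enzyme (minimum). The 60 min room-temperature reaction uses 0.1 mM ATP, with ADP detected by luminescence.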

[11] = qHTS of pediatric cancer cell lines to identify multiple opportunities for drug repurposing: Confirmatory screen for A673 cells (AID 1347110); conditions: A673 Ewing sarcoma cell viability; series mostly up to 45.9 µM; also: nearly all actives have a fitted effect of over 65% in size
In short: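 Cells plated at 500-1,000/well were treated five hours later with multi-point dilutions up to 46 µM final. After two days, CellTiter-Glo was added and luminescence read.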

[12] = qHTS of pediatric cancer cell lines to identify multiple opportunities for drug repurposing: Confirmatory screen for Rh18 cells (AID 1347125); conditions: Rh18 rhabdomyosarcoma cells, viability; series mostly up to 45.9 µM; also: nearly all actives have a fitted effect of over 55% in size
In short: as §4

[13] = qHTS of pediatric cancer cell lines to identify multiple opportunities for drug repurposing: Confirmatory screen for Rh30 cells (AID 1347126); conditions: Rh30 rhabdomyosarcoma cell viability; activity change, negative = cytotoxic: at 45.9 µM (top of the series); also: nearly all actives have a fitted effect of over 55% in size
In short: as §4

[14] = Quantitative High-Throughput drug screen in 47 multiple myeloma cell lines against the NCATS MIPE library collection: NCIH929_DSMZ cell viability assay (AID 1918978); conditions: NCI-H929 myeloma viability, CellTiter-Glo ATP, 48 h; series mostly up to 45.8 µM; also: nearly all actives have a fitted effect of over 35% in size
In short: as §2

[15] = qHTS of pediatric cancer cell lines to identify multiple opportunities for drug repurposing: Primary screen for OHS-50 cells (AID 1347103); conditions: OHS-50 osteosarcoma viability, CellTiter-Glo luminescence, 48 h; series mostly up to 57.3 µM; also: nearly all actives have a fitted effect of over 40% in size
In short: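 Cells (500-1,000/well) rested 5 h, then received compounds for 48 h; metabolically active cells were measured by CellTiter-Glo luminescence. Final concentrations spanned up to 46 µM (MIPE, 11-point) or 0.59 nM-46 µM (NPC, 8-point) in primary screens, 11-point in follow-ups.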

[16] = qHTS of pediatric cancer cell lines to identify multiple opportunities for drug repurposing: Confirmatory screen for BT-12 cells (AID 1347112); conditions: BT-12 rhabdoid tumor cells, viability; series mostly up to 45.9 µM; also: nearly all actives have a fitted effect of over 55% in size
In short: as §4
Potency is read from the fitted curve at half-maximal effect.

With `Cc1cncc2cccc(S(=O)(=O)N3CCCN(C(=O)CN)C[C@@H]3C)c12` the Potency [1] was active: 23.5 µM, the Potency [2] was inconclusive: 37.2 µM [cytotoxic, single point] and the Potency [3] was inconclusive: 33.2 µM [cytotoxic, single point].

In the case of `COc1ccc(C(=O)CC2(O)C(=O)Nc3c(Cl)ccc(Cl)c32)cc1` (stereo not drawn), the Potency [3] is reported as active: 18.7 µM, the Potency (Es-2) is reported as inconclusive: 35.5 µM [cytotoxic, single point] and the Potency (JEG-3) is reported as inconclusive: 14.1 µM [cytotoxic, partial curve]. The Potency (Tov112D) was active: 3.98 µM.

With `COc1c(OCCCN2CCOCC2)ccc2c3n(c(=NC(=O)c4cnc(N)nc4)nc12)CCN3` the Potency [4] was active: 0.644 µM, the Potency [5] was “inactive” and the Potency [6] was active: 2.57 µM. The Potency [7] was inconclusive: 0.644 µM [cytotoxic, full curve, poor fit], the Potency [8] was “inactive” and the Potency [1] was active: 0.182 µM. For the same compound, the Potency (C33A) was active: 0.316 µM, the Potency (Es-2) was inconclusive: 5.62 µM [cytotoxic, partial curve, poor fit] and the Potency (JEG-3) was inconclusive: 0.282 µM [cytotoxic, full curve, poor fit].

In the case of `CC(C)Nc1cc(-c2c[nH]c(C(=O)N[C@H](CO)c3cccc(Cl)c3)c2)c(Cl)cn1`, the Potency [9] is reported as “inactive”, the Potency (Es-2) is reported as inconclusive: 11.2 µM [cytotoxic, partial curve] and the Potency (JEG-3) is reported as “inactive”.

With `CC(C)c1onc(-c2c(Cl)cccc2Cl)c1COc1ccc(/C=C/c2cccc(C(=O)O)c2)c(Cl)c1` the Potency [10] was inconclusive: 43.4 µM [inhibitor, single point] and the Potency [9] was inconclusive: 25.5 µM [inhibitor, partial curve, poor fit].

With `COc1cc2ncnc(Nc3ccc(F)c(Cl)c3)c2cc1OCCCN1CCOCC1` the Potency [11] was inconclusive: 2.14 µM [cytotoxic, full curve, poor fit], the Potency [6] was inconclusive: 42.7 µM [cytotoxic, single point] and the Potency [12] was active: 38 µM.

In the case of `CN(C)CC(C)(C)CNc1nn2c(-c3ccccc3)nnc2cc1C1CCC1`, the Potency [11] is reported as inconclusive: 18.5 µM [cytotoxic, partial curve], the Potency [6] is reported as “inactive” and the Potency [8] is reported as inconclusive: 23.3 µM [cytotoxic, single point]. For the same compound, the Potency [13] was inconclusive: 1.31 µM [cytotoxic, full curve, poor fit] and the Potency [14] was inconclusive: 16.6 µM [cytotoxic, partial curve].

In the case of `O=C(CCCN1CCN(c2ccccn2)CC1)c1ccc(F)cc1`, the Potency [15] is reported as inconclusive: 17.4 µM [cytotoxic, partial curve, poor fit].

In the case of `CCOC(CN1CCN(CC(C)C(=O)c2ccccc2)CC1)c1ccccc1` (stereo not drawn), the Potency [15] is reported as “inactive”.

With `Cc1cnc(-c2cnc(NCCNc3ccc(C#N)cn3)nc2-c2ccc(Cl)cc2Cl)[nH]1` the Potency [11] was inconclusive: 29.3 µM [cytotoxic, single point], the Potency [16] was “inactive” and the Potency [4] was “inactive”. For the same compound, the Potency [6] was active: 14.7 µM, the Potency [1] was inconclusive: 16.6 µM [cytotoxic, partial curve] and the Potency [3] was inconclusive: 0.0833 µM [cytotoxic, full curve, poor fit]. The Potency (C33A) was inconclusive: 39.8 µM [rising, single point] and the Potency (JEG-3) was inconclusive: 17.8 µM [rising, partial curve].

For `Nc1ccn([C@@H]2O[C@H](CO)[C@@H](O)C2(F)F)c(=O)n1`, the Potency (C33A) was inconclusive: 1.26 µM [cytotoxic, full curve], the Potency (Es-2) was inconclusive: 316 nM [cytotoxic, full curve, poor fit] and inconclusive: 708 nM and the Potency (Tov112D) was active: 178 nM and inconclusive: 100 nM.

With `CCOC(=O)C1=C[C@@]2(CC)CCCN3CCc4c(n1c1ccccc41)[C@H]32` the Potency [10] was “inactive”.

For `Nc1cc(C(F)(F)F)c(-c2cc(N3CCOCC3)nc(N3CCOCC3)n2)cn1`, the Potency [10] was “inactive”, the Potency [16] was inconclusive: 11.7 µM [cytotoxic, single point] and the Potency [4] was inconclusive: 4.65 µM [cytotoxic, partial curve]. The Potency [5] was inconclusive: 5.85 µM [cytotoxic, partial curve], the Potency [6] was inconclusive: 3.69 µM [cytotoxic, partial curve] and the Potency [7] was inconclusive: 4.65 µM [cytotoxic, partial curve]. The Potency [8] was active: 5.22 µM, the Potency [12] was inconclusive: 3.29 µM [cytotoxic, partial curve] and the Potency (C33A) was active: 15.8 µM. The Potency (JEG-3) was active: 7.94 µM.

For `COC(=O)[C@]12CCC(C)(C)C[C@@H]1[C@@H]1C(=O)C=C3[C@@]4(C)C=C(C#N)C(=O)C(C)(C)[C@@H]4CC[C@@]3(C)[C@]1(C)CC2`, the Potency [16] was active: 7.37 µM, the Potency [7] was active: 7.37 µM and the Potency [8] was active: 2.08 µM. For the same compound, the Potency [12] was active: 5.22 µM and the Potency [13] was active: 3.29 µM.

In the case of `COc1cc(O)c2c(c1)C1OC1C[C@H](O)[C@H](O)C(=O)C=CC[C@H](C)OC2=O` (stereo partly drawn), the Potency [4] is reported as active: 7.37 µM, the Potency [7] is reported as inconclusive: 13.1 µM [cytotoxic, partial curve, poor fit] and the Potency [8] is reported as inconclusive: 0.465 µM [cytotoxic, full curve, poor fit]. The Potency [13] was inconclusive: 0.0369 µM [cytotoxic, full curve, poor fit] and the Potency [2] was active: 3.32 µM.

In the case of `C=C(C)C(=O)O[C@H]1C[C@@](C)(O)C2(O)CCC(C)(/C=C3/OC(=O)C(COC)=C31)O2` (stereo partly drawn), the Potency (C33A) is reported as inconclusive: 20 µM [cytotoxic, single point], the Potency (JEG-3) is reported as inconclusive: 28.2 µM [cytotoxic, single point] and the Potency (Tov112D) is reported as inconclusive: 20 µM [cytotoxic, single point].

For `CO[C@@H]1[C@@H](OC)[C@H](C)[C@@](O)(CC(=O)O)O[C@H]1[C@H](C)[C@H]1O[C@@]2(CC[C@@](C)([C@H]3CC[C@@](C)([C@@H]4O[C@@H]([C@H]5O[C@](C)(O)[C@H](C)C[C@@H]5C)C[C@@H]4OC4C[C@H](OC)[C@@H](OC)[C@H](C)O4)O3)O2)C[C@H](O)[C@H]1C` (stereo partly drawn), the Potency [15] was active: 0.389 µM, the Potency [5] was active: 1.85 µM and the Potency [7] was active: 8.27 µM. The Potency [12] was active: 6.57 µM, the Potency (C33A) was inconclusive: 11.2 µM [cytotoxic, partial curve, poor fit] and the Potency (Es-2) was active: 10 µM. For the same compound, the Potency (JEG-3) was active: 6.31 µM and the Potency (Tov112D) was active: 11.2 µM.

In the case of `CC(Oc1cc(-n2cnc3ccc(CN4CCN(C)CC4)cc32)sc1C(N)=O)c1ccccc1C(F)(F)F` (stereo not drawn), the Potency (C33A) is reported as active: 8.91 µM, the Potency (Es-2) is reported as active: 7.94 µM and the Potency (JEG-3) is reported as active: 5.62 µM. For the same compound, the Potency (Tov112D) was inconclusive: 3.55 µM [cytotoxic, full curve, poor fit].

Reference: PubChem BioAssay (NCATS)
